Data from PMC9954134.
These are yes or no findings as the source states them, for the method shown. In cells and extracts the contact can be indirect. Some binding calls cover weakened binding; strength is not graded here.

Chains of the proteins cited; added tags and fusions are not shown. Lines headed by an entry give the natural chain unless they say otherwise; changes in a name come on top. A line that says so, or that is headed by a name, gives the form on record, which may keep a tag or linker.
CD44 S291A (P16070-12, form named): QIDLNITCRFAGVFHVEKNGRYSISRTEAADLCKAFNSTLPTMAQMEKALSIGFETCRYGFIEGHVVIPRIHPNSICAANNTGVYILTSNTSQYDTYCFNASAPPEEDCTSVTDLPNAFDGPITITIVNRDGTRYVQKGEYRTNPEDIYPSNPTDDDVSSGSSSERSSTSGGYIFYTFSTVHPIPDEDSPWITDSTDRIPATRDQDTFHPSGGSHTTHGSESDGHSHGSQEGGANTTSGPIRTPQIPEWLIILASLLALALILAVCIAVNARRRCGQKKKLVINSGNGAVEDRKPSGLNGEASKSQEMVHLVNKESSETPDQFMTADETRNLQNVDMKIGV
CD44 S316A (P16070-12, form named): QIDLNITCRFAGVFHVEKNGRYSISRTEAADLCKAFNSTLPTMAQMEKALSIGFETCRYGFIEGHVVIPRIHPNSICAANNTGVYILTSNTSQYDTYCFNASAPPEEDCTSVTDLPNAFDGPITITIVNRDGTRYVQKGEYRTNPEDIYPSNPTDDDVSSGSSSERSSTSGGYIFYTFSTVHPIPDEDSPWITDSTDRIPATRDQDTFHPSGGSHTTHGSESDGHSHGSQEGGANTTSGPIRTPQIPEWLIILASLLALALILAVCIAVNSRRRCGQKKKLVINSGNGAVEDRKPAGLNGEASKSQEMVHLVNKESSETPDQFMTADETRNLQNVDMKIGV
CD44 S325A (P16070-12, form named): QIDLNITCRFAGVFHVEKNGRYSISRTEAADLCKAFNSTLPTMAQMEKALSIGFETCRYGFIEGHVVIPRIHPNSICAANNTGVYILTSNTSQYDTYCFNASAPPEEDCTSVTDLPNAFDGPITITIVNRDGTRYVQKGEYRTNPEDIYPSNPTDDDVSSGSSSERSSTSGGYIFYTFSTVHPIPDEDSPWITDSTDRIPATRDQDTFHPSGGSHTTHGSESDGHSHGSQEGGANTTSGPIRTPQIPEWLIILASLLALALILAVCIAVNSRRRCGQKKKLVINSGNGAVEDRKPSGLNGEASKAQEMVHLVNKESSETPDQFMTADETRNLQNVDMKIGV
CD44 mutant altering the putative nuclear localization signal (NLS mutant) (P16070-12, form named): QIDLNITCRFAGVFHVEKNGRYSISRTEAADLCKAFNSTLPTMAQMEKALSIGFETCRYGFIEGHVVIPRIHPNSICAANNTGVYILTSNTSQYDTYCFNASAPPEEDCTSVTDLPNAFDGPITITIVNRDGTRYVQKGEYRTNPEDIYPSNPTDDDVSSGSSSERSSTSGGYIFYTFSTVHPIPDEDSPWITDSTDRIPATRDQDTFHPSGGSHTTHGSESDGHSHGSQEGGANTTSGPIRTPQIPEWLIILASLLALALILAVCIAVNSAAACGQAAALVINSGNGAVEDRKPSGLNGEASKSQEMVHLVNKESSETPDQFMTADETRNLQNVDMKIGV
CD44 mutated in the ankyrin-binding domain (R313I, K314N) (P16070-12, form named): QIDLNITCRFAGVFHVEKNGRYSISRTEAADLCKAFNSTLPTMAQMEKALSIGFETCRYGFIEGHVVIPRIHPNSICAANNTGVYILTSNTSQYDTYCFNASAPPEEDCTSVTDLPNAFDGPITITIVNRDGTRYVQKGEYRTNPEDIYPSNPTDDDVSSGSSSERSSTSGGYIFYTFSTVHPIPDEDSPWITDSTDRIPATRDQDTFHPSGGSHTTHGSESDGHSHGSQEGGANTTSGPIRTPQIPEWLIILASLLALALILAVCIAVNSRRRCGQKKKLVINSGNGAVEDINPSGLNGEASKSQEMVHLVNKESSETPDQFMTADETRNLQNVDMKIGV
wild-type CD44 standard form (wt CD44) (P16070-12, form named): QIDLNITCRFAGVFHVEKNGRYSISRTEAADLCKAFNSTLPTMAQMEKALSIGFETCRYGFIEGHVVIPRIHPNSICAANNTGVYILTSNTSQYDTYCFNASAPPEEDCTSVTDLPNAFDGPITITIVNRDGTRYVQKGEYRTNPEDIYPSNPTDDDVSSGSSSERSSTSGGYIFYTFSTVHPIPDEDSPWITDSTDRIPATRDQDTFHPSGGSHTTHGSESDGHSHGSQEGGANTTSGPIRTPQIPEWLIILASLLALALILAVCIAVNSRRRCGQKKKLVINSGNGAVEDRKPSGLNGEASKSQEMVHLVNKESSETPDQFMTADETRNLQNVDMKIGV
CD44 Δ320 deletion mutant (P16070-12, form named): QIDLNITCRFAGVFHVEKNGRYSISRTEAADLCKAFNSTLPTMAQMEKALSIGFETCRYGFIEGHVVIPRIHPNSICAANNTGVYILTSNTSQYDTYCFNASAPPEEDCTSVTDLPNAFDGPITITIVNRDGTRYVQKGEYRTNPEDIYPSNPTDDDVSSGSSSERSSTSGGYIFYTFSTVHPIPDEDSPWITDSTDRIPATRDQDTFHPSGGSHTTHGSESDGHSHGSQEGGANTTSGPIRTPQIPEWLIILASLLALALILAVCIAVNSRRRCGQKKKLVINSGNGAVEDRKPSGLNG

B1: iASPP (in lysates of cells transfected with CD44 constructs) (protein, UniProt Q8WUF5 1-828)
chain: MDSEAFQSARDFLDMNFQSLAMKHMDLKQMELDTAAAKVDELTKQLESLWSDSPAPPGPQAGPPSRPPRYSSSSIPEPFGSRGSPRKAATDGADTPFGRSESAPTLHPYSPLSPKGRPSSPRTPLYLQPDAYGSLDRATSPRPRAFDGAGSSLGRAPSPRPGPGPLRQQGPPTPFDFLGRAGSPRGSPLAEGPQAFFPERGPSPRPPATAYDAPASAFGSSLLGSGGSAFAPPLRAQDDLTLRRRPPKAWNESDLDVAYEKKPSQTASYERLDVFARPASPSLQLLPWRESSLDGLGGTGKDNLTSATLPRNYKVSPLASDRRSDAGSYRRSLGSAGPSGTLPRSWQPVSRIPMPPSSPQPRGAPRQRPIPLSMIFKLQNAFWEHGASRAMLPGSPLFTRAPPPKLQPQPQPQPQPQSQPQPQLPPQPQTQPQTPTPAPQHPQQTWPPVNEGPPKPPTELEPEPEIEGLLTPVLEAGDVDEGPVARPLSPTRLQPALPPEAQSVPELEEVARVLAEIPRPLKRRGSMEQAPAVALPPTHKKQYQQIISRLFHRHGGPGPGGPEPELSPITEGSEARAGPPAPAPPAPIPPPAPSQSSPPEQPQSMEMRSVLRKAGSPRKARRARLNPLVLLLDAALTGELEVVQQAVKEMNDPSQPNEEGITALHNAICGANYSIVDFLITAGANVNSPDSHGWTPLHCAASCNDTVICMALVQHGAAIFATTLSDGATAFEKCDPYREGYADCATYLADVEQSMGLMNSGAVYALWDYSAEFGDELSFREGESVTVLRRDGPEETDWWWAALHGQEGYVPRNYFGLFPRVKPQRSKV

Tests used:
[1] = biological target: T1, iASPP (in lysates of cells transfected with CD44 constructs) (UniProt Q8WUF5); experiment: co-IP; HEK293 cells transiently transfected with wt CD44 or CD44 mutants; IP with antibodies against iASPP, blot for CD44 and iASPP
T1 sequence: B1 chain

[2] = biological target: T1, iASPP (in lysates of cells transfected with CD44 constructs); experiment: co-IP; MCF-7 cells transiently transfected with wt CD44 or the same CD44 mutants; iASPP-CD44 interaction by blot (Figure 3C)
[3] = biological target: T2, inhibitor of the apoptosis-stimulating protein of p53 (iASPP) (human (endogenous in AG1523, hTERT-BJ, MCF10A, HepG2, MTS64, H1299)) (UniProt Q8WUF5); experiment: proximity ligation; in situ PLA (Olink) for endogenous iASPP and CD44, with and without hyaluronan (Figure S2)
T2 sequence: B1 chain

[4] = biological target: T2, inhibitor of the apoptosis-stimulating protein of p53 (iASPP) (human (endogenous in AG1523, hTERT-BJ, MCF10A, HepG2, MTS64, H1299)); experiment: co-IP; lysates of AG1523, hTERT-BJ, MCF10A, HepG2, MTS64 and H1299 cells; IP with an iASPP antibody (control rabbit IgG), blot for CD44 and iASPP; one wash with 500 mM NaCl, four with 150 mM NaCl buffer; cells also starved and stimulated with hyaluronan, 10% FBS, Nutlin, PDGF-BB or TGFβ, treated with p53 siRNA or overexpressing p53, at regular or high density
[5] = biological target: wild-type CD44 standard form (wt CD44) (UniProt P16070); experiment: co-IP; overexpression experiments; IP of CD44 with IM7 antibodies, blot with an iASPP antibody (Figure S1)

Row | Molecule | binding [1] | binding [2] | other results
1 | CD44 S291A (from UniProt P16070-12 21-361) (receptor) | binds |  | 
2 | CD44 S316A (from UniProt P16070-12 21-361) (receptor) | binds |  | 
3 | CD44 S325A (from UniProt P16070-12 21-361) (receptor) | binds |  | 
4 | CD44 mutant altering the putative nuclear localization signal (NLS mutant) (from UniProt P16070-12 21-361) (receptor) | binds | binds | 
5 | CD44 mutated in the ankyrin-binding domain (R313I, K314N) (from UniProt P16070-12 21-361) (receptor) |  | binds | 
6 | CD44 standard isoform (CD44s) (from UniProt P16070-12 21-361) (receptor) |  |  | binding [3]: binds; binding [4]: binds
7 | CD44 Δ320 deletion mutant (from UniProt P16070-12 21-320) (domain or fragment) | binds | binds | 
8 | wild-type CD44 standard form (wt CD44) (from UniProt P16070-12 21-361) (receptor) | binds | binds | 
9 | B1 |  |  | binding [5]: binds
